The source of these data is patent publication CN110872351A.

Protein sequences, listed by entry. Tags and fused reporters are not part of them. Residues count along the entry.
UniProt P51654, residues 25-559: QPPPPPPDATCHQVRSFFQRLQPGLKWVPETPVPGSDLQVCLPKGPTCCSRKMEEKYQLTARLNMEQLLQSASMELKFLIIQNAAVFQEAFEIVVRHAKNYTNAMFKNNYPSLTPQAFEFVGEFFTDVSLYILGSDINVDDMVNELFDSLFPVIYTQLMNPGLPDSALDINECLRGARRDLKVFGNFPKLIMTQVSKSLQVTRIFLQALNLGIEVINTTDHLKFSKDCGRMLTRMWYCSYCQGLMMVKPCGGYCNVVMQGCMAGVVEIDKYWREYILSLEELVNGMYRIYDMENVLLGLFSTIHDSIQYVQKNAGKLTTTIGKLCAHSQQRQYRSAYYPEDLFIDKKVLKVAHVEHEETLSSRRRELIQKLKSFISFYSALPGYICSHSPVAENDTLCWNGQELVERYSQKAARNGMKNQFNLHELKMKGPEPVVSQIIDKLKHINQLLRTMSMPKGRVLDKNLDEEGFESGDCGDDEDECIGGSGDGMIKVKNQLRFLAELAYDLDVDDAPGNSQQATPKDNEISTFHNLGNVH

These are yes or no findings as the source states them, for the method shown. Some results given as binding are weak or reduced against the parent protein; the word gives no strength.

For assay [1], the target named is GPC3蛋白 (glypican-3 protein expressed in eukaryotic HEK293 cells) (UniProt P51654). The assay is described as follows: ELISA on coated GPC3 protein (1 μg/mL), GN1 heated for 2 h, detected with HRP anti-HA mAb, OD450.
The target is the same in assay [2]. The assay is described as follows: sandwich phage ELISA: GPC3 protein captured by coated GPC3 polyclonal antibody, phage-displayed clone detected with anti-M13.

B1: 纳米抗体GN1 (nanobody GN1 that specifically binds GPC3 protein) (VHH, not shown: small tags and cut ends)
VHH: QVQLVESGGGLVQAGGSLRLSCAASGRTFVGSTMGWFRQAPGKEREFVARMSWLGRSTYYADSVKGRFTISRDNAKNTVYLQMNSLKPEDTAVYYCALALGYIDLARPDAVDAWGQGTLVTVSS
As to B1, the binding result in assay [1] and in assay [2] was “binds” in each case.
